Test results reported in publication doi:10.1101/2021.08.18.456837.
No constants are given. Whether binding was seen depends on the method and setting. For part of these data: In cells and extracts the contact can be indirect. Where a sequence is shown, tags or fusion partners need not be part of it.

The chains behind the UniProt entries cited, without tags or fusion partners.
UniProt Q9LYG9: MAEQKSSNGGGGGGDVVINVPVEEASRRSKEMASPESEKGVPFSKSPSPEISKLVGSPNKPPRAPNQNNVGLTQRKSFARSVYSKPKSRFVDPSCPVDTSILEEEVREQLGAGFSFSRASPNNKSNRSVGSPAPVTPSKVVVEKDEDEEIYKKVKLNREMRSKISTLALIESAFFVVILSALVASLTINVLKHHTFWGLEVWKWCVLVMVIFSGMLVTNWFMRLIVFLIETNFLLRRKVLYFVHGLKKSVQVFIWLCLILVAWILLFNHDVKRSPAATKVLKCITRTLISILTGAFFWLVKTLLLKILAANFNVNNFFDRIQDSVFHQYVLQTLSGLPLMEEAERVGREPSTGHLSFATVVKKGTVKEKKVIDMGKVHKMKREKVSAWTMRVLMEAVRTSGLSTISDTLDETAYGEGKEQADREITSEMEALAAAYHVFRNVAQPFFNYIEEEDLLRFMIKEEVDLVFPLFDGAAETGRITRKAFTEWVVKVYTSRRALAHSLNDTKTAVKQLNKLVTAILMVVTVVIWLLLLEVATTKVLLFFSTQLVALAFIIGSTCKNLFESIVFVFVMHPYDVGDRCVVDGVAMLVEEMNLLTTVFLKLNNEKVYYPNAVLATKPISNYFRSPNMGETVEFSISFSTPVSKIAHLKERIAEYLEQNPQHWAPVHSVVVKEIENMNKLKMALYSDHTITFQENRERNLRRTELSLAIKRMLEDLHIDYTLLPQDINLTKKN
UniProt P27323: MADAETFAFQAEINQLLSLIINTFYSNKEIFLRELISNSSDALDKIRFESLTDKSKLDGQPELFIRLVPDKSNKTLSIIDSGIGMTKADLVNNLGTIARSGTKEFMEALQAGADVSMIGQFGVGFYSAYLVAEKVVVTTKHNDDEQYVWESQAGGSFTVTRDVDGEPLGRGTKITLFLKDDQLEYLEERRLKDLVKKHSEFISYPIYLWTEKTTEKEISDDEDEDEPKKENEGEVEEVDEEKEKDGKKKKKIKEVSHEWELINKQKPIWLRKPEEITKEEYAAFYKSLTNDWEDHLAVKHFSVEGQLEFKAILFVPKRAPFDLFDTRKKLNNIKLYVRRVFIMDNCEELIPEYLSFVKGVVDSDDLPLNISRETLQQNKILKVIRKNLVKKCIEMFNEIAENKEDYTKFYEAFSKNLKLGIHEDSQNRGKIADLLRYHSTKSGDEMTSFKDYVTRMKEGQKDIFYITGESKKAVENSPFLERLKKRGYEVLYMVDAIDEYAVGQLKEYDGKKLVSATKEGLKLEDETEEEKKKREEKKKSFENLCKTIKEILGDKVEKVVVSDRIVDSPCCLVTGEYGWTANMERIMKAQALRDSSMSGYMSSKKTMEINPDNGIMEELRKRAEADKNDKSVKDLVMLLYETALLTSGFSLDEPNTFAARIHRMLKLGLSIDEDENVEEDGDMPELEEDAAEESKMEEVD

B1: SUPPRESSOR of G2 ALLELE of SKP1 b (SGT1b), split-ubiquitin (mbSUS) fusion (protein, UniProt Q9SUT5 1-358)
chain: MAKELAEKAKEAFLDDDFDVAVDLYSKAIDLDPNCAAFFADRAQANIKIDNFTEAVVDANKAIELEPTLAKAYLRKGTACMKLEEYSTAKAALEKGASVAPNEPKFKKMIDECDLRIAEEEKDLVQPMPPSLPSSSTTPLATEADAPPVPIPAAPAKPMFRHEFYQKPEEAVVTIFAKKVPKENVTVEFGEQILSVVIDVAGEEAYHLQPRLFGKIIPEKCRFEVLSTKVEIRLAKAEIITWASLEYGKGQSVLPKPNVSSALSQRPVYPSSKPAKDWDKLEAEVKKQEKDEKLDGDAAMNKFFSDIYSSADEDMRRAMNKSFAESNGTVLSTNWKEVGTKKVESTPPDGMELKKWEY
B2: REQUIRED for MLAI2 … (RAR1), split-ubiquitin (mbSUS) fusion (protein, UniProt Q9SE33 1-226)
chain: MEVGSATKKLQCQRIGCNAMFTDDDNPQGSCQFHASGPFFHDGMKEWSCCKQRSHDFSLFLEIPGCKTGKHTTEKPVLAKSVPKHPVAAPTSSPDANAATKDSCSRCRQGFFCSDHGSQPKEQIKQTLNTPGQAEEEKIEPLAPPVQKAVIDINQPQVCKNKGCGQTFKERDNHETACSHHPGPAVFHDRLRGWKCCDVHVKEFDEFMEIPPCTKGWHSSSPDPAV
B3: SUPPRESSOR of G2 ALLELE of SKP1 b (SGT1b), BiFC fusion (protein, UniProt Q9SUT5 1-358)
chain: B1 chain
B4: REQUIRED for MLAI2 … (RAR1), BiFC fusion (protein, UniProt Q9SE33 1-226)
chain: B2 chain

Biological target: MscS-Like (MSL)10, split-ubiquitin (mbSUS) fusion (Arabidopsis thaliana) (UniProt Q9LYG9)
Assay: two-hybrid

binding | Molecule
no binding | HEAT SHOCK PROTEIN 90 kD HSP90.1, split-ubiquitin (mbSUS) fusion (from UniProt P27323 1-700)
no binding | B1
no binding | B2

Biological target: MscS-Like (MSL)10, BiFC fusion (Arabidopsis thaliana) (UniProt Q9LYG9)
Assay: split reporter

binding | Molecule
no binding | HEAT SHOCK PROTEIN 90 kD HSP90.1, BiFC fusion (from UniProt P27323 1-700)
no binding | B3
no binding | B4
